Drawing on US10894793B2, “Bicyclic pyridine, pyrazine, and pyrimidine derivatives as PI3K beta inhibitors” (Janssen Pharmaceutica NV, priority 2016, dated 2021), this text covers IC50 and Kd for one compound.

The chains behind the UniProt entries cited, without tags or fusion partners. Where a name states a change or a piece, a line headed by the entry shows the natural chain unless it says otherwise.
UniProt O00329, whole entry: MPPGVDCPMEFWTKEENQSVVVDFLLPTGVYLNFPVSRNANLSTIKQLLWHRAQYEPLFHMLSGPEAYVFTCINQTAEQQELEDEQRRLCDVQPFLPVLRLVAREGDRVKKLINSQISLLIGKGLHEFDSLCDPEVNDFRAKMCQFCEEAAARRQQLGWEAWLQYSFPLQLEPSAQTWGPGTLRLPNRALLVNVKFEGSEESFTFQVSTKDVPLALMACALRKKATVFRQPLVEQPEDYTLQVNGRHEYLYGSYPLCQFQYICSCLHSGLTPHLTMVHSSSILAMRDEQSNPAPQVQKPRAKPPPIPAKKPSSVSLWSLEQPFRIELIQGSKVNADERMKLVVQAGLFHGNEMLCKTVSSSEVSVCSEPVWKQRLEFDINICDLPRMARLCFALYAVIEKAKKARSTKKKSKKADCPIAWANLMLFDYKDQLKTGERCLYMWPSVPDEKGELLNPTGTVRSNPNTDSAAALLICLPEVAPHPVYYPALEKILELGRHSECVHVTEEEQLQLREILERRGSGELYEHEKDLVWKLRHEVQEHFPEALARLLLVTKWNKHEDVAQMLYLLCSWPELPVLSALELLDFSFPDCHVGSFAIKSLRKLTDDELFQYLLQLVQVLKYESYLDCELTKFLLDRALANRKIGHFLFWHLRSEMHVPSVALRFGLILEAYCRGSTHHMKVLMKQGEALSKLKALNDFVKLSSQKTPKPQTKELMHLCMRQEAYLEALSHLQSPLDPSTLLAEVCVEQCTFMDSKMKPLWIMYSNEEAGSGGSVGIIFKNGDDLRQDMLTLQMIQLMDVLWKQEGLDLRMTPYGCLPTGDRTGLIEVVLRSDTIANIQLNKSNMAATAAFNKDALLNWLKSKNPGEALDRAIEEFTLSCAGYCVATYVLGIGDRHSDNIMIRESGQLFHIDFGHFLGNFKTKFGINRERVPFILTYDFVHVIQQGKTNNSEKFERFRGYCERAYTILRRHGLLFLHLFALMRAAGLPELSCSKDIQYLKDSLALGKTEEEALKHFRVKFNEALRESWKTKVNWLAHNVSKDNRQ
UniProt P42336, whole entry: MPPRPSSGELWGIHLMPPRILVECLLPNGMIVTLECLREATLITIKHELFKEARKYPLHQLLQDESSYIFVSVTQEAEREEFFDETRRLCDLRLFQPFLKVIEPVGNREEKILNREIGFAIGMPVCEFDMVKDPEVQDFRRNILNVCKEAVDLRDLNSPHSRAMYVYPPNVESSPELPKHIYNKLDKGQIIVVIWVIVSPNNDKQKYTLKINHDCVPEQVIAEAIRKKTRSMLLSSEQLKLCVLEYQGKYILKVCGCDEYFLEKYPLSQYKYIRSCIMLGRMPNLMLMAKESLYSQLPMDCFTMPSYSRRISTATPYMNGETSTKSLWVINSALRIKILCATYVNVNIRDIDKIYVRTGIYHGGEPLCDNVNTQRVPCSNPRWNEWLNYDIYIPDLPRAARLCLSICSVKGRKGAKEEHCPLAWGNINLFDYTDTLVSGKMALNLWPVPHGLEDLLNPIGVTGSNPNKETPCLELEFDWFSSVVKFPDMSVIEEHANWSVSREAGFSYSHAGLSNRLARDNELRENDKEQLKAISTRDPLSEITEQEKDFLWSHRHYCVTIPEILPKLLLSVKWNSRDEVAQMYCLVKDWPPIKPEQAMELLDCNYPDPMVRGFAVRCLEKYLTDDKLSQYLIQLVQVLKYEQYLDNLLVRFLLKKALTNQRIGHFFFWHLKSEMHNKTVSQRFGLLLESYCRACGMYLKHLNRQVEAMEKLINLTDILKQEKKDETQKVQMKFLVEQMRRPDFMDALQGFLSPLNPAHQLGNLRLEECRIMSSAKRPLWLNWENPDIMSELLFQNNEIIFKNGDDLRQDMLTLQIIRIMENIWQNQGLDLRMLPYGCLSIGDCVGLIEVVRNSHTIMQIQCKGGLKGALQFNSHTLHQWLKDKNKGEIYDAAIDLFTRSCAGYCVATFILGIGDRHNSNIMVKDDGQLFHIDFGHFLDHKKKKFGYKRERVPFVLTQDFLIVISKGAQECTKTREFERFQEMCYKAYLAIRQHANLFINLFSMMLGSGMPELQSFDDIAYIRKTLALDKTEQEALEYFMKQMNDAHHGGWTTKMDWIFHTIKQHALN
UniProt P48736, whole entry: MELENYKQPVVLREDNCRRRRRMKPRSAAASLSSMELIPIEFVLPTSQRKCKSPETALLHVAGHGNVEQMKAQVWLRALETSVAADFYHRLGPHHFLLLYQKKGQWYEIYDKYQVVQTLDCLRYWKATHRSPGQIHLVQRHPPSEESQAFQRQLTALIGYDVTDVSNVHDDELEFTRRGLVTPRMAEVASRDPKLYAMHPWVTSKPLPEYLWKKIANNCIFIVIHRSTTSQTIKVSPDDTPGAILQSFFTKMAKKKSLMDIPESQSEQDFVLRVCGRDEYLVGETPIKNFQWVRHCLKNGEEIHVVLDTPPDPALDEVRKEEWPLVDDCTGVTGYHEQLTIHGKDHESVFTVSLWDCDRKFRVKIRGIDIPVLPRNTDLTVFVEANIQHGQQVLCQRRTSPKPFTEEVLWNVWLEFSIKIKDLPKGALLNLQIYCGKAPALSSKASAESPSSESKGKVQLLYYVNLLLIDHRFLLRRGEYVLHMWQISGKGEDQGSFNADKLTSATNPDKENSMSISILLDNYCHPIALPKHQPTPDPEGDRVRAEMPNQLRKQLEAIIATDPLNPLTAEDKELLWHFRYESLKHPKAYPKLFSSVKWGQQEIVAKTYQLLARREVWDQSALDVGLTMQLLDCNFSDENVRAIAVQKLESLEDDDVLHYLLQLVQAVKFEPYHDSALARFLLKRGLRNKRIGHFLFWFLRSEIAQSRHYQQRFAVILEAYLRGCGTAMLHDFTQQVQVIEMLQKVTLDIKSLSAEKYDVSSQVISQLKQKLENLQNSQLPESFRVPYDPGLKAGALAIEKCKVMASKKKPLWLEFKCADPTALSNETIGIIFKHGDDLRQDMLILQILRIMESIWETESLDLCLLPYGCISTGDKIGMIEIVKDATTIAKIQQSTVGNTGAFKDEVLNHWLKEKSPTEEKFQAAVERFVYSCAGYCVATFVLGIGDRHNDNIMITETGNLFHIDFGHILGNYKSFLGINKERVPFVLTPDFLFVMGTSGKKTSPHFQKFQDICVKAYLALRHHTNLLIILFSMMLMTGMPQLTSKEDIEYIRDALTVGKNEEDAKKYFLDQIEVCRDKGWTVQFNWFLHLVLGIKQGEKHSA
UniProt P42338, whole entry: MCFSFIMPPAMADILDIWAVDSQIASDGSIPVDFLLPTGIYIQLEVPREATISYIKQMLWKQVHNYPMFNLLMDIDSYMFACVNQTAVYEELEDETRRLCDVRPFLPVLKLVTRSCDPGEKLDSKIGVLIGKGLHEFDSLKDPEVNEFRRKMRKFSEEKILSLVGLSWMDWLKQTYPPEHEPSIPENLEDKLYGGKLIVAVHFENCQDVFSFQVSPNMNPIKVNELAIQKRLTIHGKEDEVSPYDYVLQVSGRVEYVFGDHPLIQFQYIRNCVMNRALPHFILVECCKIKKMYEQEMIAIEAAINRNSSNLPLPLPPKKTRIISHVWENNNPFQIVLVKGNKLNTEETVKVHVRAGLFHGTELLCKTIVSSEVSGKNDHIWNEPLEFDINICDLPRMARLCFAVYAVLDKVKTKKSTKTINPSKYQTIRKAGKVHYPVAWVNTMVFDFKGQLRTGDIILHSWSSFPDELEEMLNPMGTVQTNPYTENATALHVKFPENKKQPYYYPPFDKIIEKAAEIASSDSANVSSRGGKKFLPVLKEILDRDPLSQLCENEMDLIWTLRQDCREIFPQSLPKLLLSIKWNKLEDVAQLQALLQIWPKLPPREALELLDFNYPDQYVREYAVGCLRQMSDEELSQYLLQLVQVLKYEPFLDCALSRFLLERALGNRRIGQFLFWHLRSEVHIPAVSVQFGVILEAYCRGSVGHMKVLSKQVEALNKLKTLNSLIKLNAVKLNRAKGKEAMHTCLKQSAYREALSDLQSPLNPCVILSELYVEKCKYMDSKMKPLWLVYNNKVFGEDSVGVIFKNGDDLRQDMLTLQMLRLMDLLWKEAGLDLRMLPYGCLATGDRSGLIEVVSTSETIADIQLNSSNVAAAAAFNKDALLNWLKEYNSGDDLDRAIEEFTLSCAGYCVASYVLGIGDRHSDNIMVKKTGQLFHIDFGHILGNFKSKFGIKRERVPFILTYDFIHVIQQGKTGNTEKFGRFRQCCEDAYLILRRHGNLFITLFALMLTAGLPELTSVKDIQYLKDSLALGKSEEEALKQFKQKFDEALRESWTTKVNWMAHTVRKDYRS

The match of structure and compound is tentative.

In experiment [1] the test system is Akt phosphorylated at Thr308 in PC-3 cells. The experiment can be described thus: Cellular assay: phosphorylation of Akt (Thr308) in PC-3 cells, MSD ELISA. To be noted: read-out: IC50 pAkt_Thr308, 60 min compound incubation. The protocol:
(§1) Cellular activity of PI3Kβ inhibitors was determined by quantifying the phosphorylation of Akt in PC-3 cells. Akt phosphorylated at Ser473 and Thr308 were measured using an enzyme-linked immunosorbent assay (ELISA; Meso Scale Discovery (MSD), Gaithersburg, Md.) and specific primary antibodies from MSD.
(§2) On day 1, PC3 cells (ATCC #[…]) were seeded into PerkinElmer MW96 plates at 25.000 cells per well, in 75 μl complete culture medium (DMEM high glucose, AQmedia™, D0819, Sigma-Aldrich) containing 10% heat inactivated FCS and incubated at 37° C., […] during 24 hours. On day 2, compound or DMSO (0.3%) was added and cells were further incubated for 60 min at 37° C., 5% CO2 in a total volume of 100 μl of medium. […]
(§3) Briefly, at the end of the cell treatment period, media were removed by aspiration and adherent cells were lysed in 50 μl ice-cold lysis buffer. […] The signals were detected using an MSD SECTOR Imager 6000 and are proportional to the phospho-Akt titres.
(§4) Data were processed. The percentage of inhibition was plotted against the log concentration of test compounds, and the sigmoidal log concentration-effect curve of best fit was calculated by nonlinear regression analysis. From these concentration-response curves, the IC50 values were calculated. […]

Another experiment addresses PIK3Cδ_h (Homo sapiens, UniProt O00329). The experiment is described as follows: Enzyme binding assay (KINOMEscan). To be noted: read-out: Kd PIK3Cδ_h, DiscoveRx. The protocol:
(§5) Enzyme Binding Assays (KINOMEscan®)
(§6) Kinase enzyme binding affinities of compounds disclosed herein were determined using the KINOMEscan technology performed by DiscoveRx Corporation, San Diego, Calif., USA (www.kinomescan.com). Table A reports the obtained Kd values (nM), with the Kd being the inhibitor binding constant: […]

The target in another experiment is MTOR_h (Homo sapiens, UniProt P42345). The experiment is described as follows: Enzyme binding assay (KINOMEscan). To be noted: read-out: Kd MTOR_h, DiscoveRx. The protocol: as §5, §6
In the next experiment the target is PIK3Cα_h (Homo sapiens, UniProt P42336). The experiment can be described thus: Enzyme binding assay (KINOMEscan). To be noted: read-out: Kd PIK3Cα_h, DiscoveRx. Here is the method:
as §5, §6

In a further experiment the target is PIK3Cγ_h (Homo sapiens, UniProt P48736). The experiment is described as follows: Enzyme binding assay (KINOMEscan). To be noted: read-out: Kd PIK3Cγ_h, DiscoveRx. The protocol: as §5, §6
A further experiment addresses PIK3Cβ_h (Homo sapiens, UniProt P42338). The experiment is described as follows: Enzyme binding assay (KINOMEscan). To be noted: read-out: Kd PIK3Cβ_h, DiscoveRx. Here is the method:
as §5, §6

Experiment [2] concerns Akt phosphorylated at Ser473 in PC-3 cells. The experiment is described as follows: Cellular assay: phosphorylation of Akt (Ser473) in PC-3 cells, MSD ELISA. To be noted: read-out: IC50 pAkt_S473, 60 min compound incubation. The protocol: as §1, §2, §3, §4

For orientation: IC50 means the concentration at which inhibition is half-maximal. For orientation: Kd means the constant that tells how readily two partners part at equilibrium.

Regarding `Cc1c(Cc2c(CO)nc3ccc(N4CCOCC4)cn23)cccc1C(F)(F)F`, the figures for the IC50 in experiment [1] and in experiment [2] were 83 nM and 182 nM, respectively. The dissociation constant (Kd) at PIK3Cδ_h was 794 nM; on MTOR_h, 17800 nM; on PIK3Cα_h, 5370 nM; at PIK3Cγ_h, 17000 nM; on PIK3Cβ_h it was 13 nM.
